Assay results taken from patent publication US9173875B2, “Treatment for nicotine-induced lung disease using peroxisome proliferator-activated receptor gamma agonists” (Los Angeles Biomedical Research Institute at Harbor-UCLA …, priority 2006, dated 2015).
For at least one compound, name, drawing or mass did not settle the structure.

Legend:
[1] = tested on: WI38 cells; assay: Reversal of nicotine-induced LIF-to-MYF transdifferentiation in WI38 cells, Western analysis
[2] = tested on: WI38 cells; assay: Reversal experiment, immunofluorescence double staining (ADRP or lipid droplets and αSMA) in WI38 cells; type: cell-based, human; conditions: RGZ 1×10^−5 M, DBcAMP 1×10^−5 M, 7 days after nicotine
[3] = tested on: WI38 cells; assay: Western blot of lipogenic and myogenic marker proteins in WI38 cells (nicotine with or without lipogenic pathway agonists); type: cell-based, human; conditions: PTHrP 5×10^−7 M, DBcAMP 1×10^−4 M, RGZ 1×10^−5 M
Description: (§1) The human embryonic cell line WI38 was obtained from American Type Culture Collection (Rockville, Md.). Cells were grown in MEM plus 10% FBS at 37° C. in six-well plates, four-well slides, and 60- and 100-mm culture dishes as needed.
Western blotting was performed with modifications of methods described previously (Ayad and Wong (1998) Crit. Care Med 26: 1277-1282). […] Equal amounts of the protein (25 μg) from the supernatant were dissolved in electrophoresis sample buffer and were subjected to SDS-PAGE (4-12% gradient) followed by electrophoretic transfer to a nitrocellulose membrane. Nonspecific binding of antibody was blocked by washing with Tris-buffered saline (TBS) containing 5% milk for 1 h. The blot was then subjected to two brief washes with TBS plus 0.5% Tween 20, incubated in TBS plus 0.1% Tween 20 and the specific primary antibodies (PPAR 1:2,000, Alexis Biochemicals, San Diego, Calif.; -SMA 1:50,000, Sigma; ADRP 1:3,000, a kind gift from Dr. Constantine Londos, National Institute of Diabetes and Digestive and Kidney Diseases) overnight at 4° C. Blots were then washed in TBS plus 0.1% Tween 20 and then incubated for 1 h in secondary antibody, washed, and developed with a chemiluminescent substrate (ECL; Amersham, Arlington Heights, Ill.) following the manufacturer's protocol.

[4] = tested on: WI38 cells; assay: Triglyceride uptake assay ([3H]triolein) in WI38 cells; type: cell-based, human; conditions: concomitant treatment; RGZ 1×10^−5 M, PTHrP 5×10^−7 M, DBcAMP 1×10^−4 M; nicotine 1×10^−9 M, 7 days
Description: as §1
The method used to quantitate triglyceride uptake by fetal rat lung fibroblasts has been described previously (Torday et al. (1995) Biochim Biophys Acta 1254: 198-206). Briefly, culture medium was replaced with DMEM containing 20% adult rat serum mixed with [3H]triolein (5 μCi/ml). The cells were incubated at 37° C. in 5% CO2+balance air for 4 h. At the termination of the incubation, the medium was decanted, the cells were rinsed twice with 1 ml of ice-cold MEM, and the cells were removed from the culture plate after a 5- to 10-min incubation with 2 ml of a 0.05% trypsin solution. An aliquot of the cell suspension was taken for protein assay (Bradford (1976) Anal Biochem 72: 248-254), and the remaining cell suspension was extracted for neutral lipid content.

[5] = tested on: WI38 cells; assay: Reversal experiment, triglyceride (triolein) uptake by WI38 cells; type: cell-based, human; conditions: RGZ 10^−5 M, PTHrP 5×10^−7 M, DBcAMP 1×10^−5 M for 7 days after nicotine
[6] = 7 days agonist after 7 days nicotine (Example 3)

`CN(CCOc1ccc(CC2SC(=O)NC2=O)cc1)c1ccccn1` (centres unmarked) [RGZ, rosiglitazone] was tested, and the “reversal of nicotine-induced decrease in PTHrP receptor expression” value ([1]; 7 days agonist after 7 days nicotine 10^−9 M (Example 3)) was “reversed”, the “reversal of nicotine-induced decrease in PPARγ expression” value [1, 6] was “reversed” and the “reversal of nicotine-induced increase in αSMA expression” value [1, 6] was “reversed”. For the same molecule, the “reversal of nicotine-induced changes in expression of PTHrP receptor, PPARγ, ADRP, αSMA and calponin” value ([1]; RGZ 1×10^−5 M, PTHrP 5×10^−7 M, DBcAMP 1×10^−5 M for 7 days after 7 days nicotine) was “almost completely reversed”, the “reversal of nicotine-induced decreases in ADRP and lipid droplet staining and increase in αSMA staining” value [2] was “reversed” and the “prevention of nicotine-induced decreases in PTHrP receptor and PPAR and increase in α-SMA protein expression” value [3] was “completely prevented”. For the same molecule, the “prevention of nicotine-induced decrease in triglyceride uptake” value [4] was “effectively prevented” and the “block of nicotine-induced decrease in triolein uptake” value [5] was “at least partially blocked”.
